Measured values: article doi:10.1101/117952
Results are given in words; binding and its absence hold for the method and conditions named. Binding seen in cells or lysates may run through a third protein. A yes stands for co-enrichment or nearness to the bait. Other partners may have been found.

By UniProt entry, the sequences of proteins in these tests, tags left out.
UniProt Q62205, whole entry: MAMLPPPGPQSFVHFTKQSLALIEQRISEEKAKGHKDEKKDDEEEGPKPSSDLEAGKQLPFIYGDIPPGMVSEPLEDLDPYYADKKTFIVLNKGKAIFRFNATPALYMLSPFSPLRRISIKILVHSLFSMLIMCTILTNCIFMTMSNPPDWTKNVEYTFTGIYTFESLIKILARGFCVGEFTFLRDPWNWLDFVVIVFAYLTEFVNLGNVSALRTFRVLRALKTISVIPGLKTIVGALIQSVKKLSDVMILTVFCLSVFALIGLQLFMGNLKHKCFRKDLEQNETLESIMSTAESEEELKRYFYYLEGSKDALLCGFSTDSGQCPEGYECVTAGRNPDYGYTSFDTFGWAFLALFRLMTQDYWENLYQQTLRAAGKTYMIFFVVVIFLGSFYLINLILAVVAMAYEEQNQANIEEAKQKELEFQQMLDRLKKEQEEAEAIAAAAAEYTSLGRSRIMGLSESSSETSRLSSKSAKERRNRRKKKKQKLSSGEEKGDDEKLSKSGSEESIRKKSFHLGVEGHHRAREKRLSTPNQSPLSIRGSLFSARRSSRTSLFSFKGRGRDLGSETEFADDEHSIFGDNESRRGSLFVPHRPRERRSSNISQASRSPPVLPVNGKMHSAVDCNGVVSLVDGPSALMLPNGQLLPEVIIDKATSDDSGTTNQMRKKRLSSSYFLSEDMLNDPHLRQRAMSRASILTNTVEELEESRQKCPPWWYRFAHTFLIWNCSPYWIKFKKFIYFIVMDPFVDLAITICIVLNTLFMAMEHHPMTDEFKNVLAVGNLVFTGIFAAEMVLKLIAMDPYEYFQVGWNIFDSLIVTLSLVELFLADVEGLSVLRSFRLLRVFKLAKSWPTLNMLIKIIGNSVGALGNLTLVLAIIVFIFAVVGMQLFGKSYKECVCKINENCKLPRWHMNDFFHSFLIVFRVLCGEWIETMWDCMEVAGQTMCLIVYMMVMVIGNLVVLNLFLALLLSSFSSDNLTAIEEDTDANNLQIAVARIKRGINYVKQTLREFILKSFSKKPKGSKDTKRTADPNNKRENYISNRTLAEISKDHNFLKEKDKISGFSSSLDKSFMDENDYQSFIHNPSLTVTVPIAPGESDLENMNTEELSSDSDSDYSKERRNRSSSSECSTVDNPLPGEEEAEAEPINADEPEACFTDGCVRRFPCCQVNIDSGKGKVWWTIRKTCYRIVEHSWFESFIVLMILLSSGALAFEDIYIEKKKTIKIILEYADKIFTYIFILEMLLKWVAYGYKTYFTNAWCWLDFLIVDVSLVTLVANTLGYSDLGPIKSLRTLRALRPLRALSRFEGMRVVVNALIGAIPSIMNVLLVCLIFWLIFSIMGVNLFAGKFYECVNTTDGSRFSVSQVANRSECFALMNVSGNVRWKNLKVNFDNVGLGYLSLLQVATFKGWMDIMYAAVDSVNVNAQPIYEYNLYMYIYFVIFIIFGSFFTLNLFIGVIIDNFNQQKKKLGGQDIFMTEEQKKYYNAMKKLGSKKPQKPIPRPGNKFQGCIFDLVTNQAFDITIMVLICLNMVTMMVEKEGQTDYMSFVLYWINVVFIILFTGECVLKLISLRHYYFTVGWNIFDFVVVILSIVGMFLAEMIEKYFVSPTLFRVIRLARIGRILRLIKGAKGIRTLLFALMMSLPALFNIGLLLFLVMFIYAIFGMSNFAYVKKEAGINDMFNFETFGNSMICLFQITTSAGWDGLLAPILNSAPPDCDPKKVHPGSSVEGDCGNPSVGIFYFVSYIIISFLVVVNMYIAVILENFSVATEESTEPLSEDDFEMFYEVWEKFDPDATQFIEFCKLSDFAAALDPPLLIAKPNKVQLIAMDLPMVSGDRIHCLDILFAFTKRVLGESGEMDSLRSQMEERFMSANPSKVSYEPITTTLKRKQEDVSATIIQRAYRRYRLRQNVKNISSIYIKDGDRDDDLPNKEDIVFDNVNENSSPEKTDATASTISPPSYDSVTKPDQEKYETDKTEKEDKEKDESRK

Target: Epitope-tagged Nav1.7 (voltage-gated sodium channel Nav1.7, TAP-tagged) (mouse) (UniProt Q62205)
Experiment: affinity purification with mass spectrometry

binding: binds
B1: Gprin1 (protein, UniProt Q3UNH4 1-932)
chain: MRDCCSSPKAIPAPPRHALDQSLGMDPRHTSSSGAAEGASCSERPAGSLACPSPNCSPLPETPRAHGALTSDNSGTTLFGKPEPMSSAEATPTASEIRNPVFSGKMDGNSLKQADSTSTRKEEAGSLRNEESMLKGKAEPMIYGKGEPGTVGRVDCTASGAENSGSLGKVDMPCSSKVDIVSPGGDNAGSLRKVETISSGKMDPKTENVMHSRRERPGSTGEGDLVSLRENDMKPPDNTDSASTKKTDPEFSGKLTPGSSGKTELVSSVTVAPVTSENVNPVCSGGAGPAAVGNSETLSSVKKDPQLLGKKEAVSSGEGGSVSVRMAETVSARQPEGMFPAKTDSTSSNSTGPSGRADPVSLRNSELVSPVKPERLSSGQAERVSLVKTETLSSGKEDPRSSRRVDHTTVTGNMQTSQKGNPESSGKTDLGSSSSGDTRSLGTWGSLSAAKAEVTEGKGDPQPWKKASLPASEKTDPLASSKAGSASQGKAETVSPGEVDAMTLGKTVPTSSGKTALVSPGKVDLMTSERAEGIPELQASEKGNPVNSTRVDTGATGSTEPKSGVKVITQIPGATSPGKVETPSLQKEQPQLSEKTDPSRKVDPPTTVEPVSLGKADSASPSPRKAESQTSAKTVPQAPDKATSSLRQSDGTPYSSAQPQRDTRSIGSLPEREPSASTSQKDLAAAAAQKSPSAEAAAPPPGPRTRDNFTKAPSWDAGAPPPREDAGTQAGAQACVSVAVSPMSPQDGAGGPAFSFQAAPRAPSPAPRPPSRRDAGLQVSLGAAETRSVATGPMTPQAAAPPAVPPVFPEVRVRPGSVLAAALAPQEATEPVRDVSWDEKGMTWEVYGASMEVEVLGMAIQKHLERQIEEHGRQGAPAPAPPPAVRAGPGRAGSVRTAPAEGAAKRPPGLFRALLQSVRRPRCCSRAGPTAE
